Values from PubChem BioAssay AID1508597 (Cure First, 2020).
Purpose: 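Survival screen with siRNA in ovarian cancer cells derived from patients, with or without rucaparib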 (primary screen). System: human ovarian carcinoma lines grown from tumours: OCI-P5x (papillary serous) and OCI-C5x (clear cell). Knock-down reagent: siRNA pool against human genes, 1.25 pmol siRNA per well. Time to read-out: 72 h or 96 h, depending on the cell culture. Treatment: rucaparib 20 µM (about IC30) or vehicle, present until read-out. Rucaparib or vehicle: Rucaparib. Cell line: OCI-P5x (serous). Detection: 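ATP luminescence measured at 72 or 96 h according to the culture, then normalised and expressed as percent viability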. Scale: viability, normalised: higher = more viable cells remaining. Hit rule: 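Active when normalised viability falls below 80 percent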. Meaning of the calls: active = viability under 80%; inactive = viability 80% or more.
This is a random part of the about 2,100 reagents, under one of the conditions tested. 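Calls flag viability under 80% in either arm, not effects specific to rucaparib; the reference for percent is not stated.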 A number with no mark means an inactive call. Reagents against one gene are numbered here. A reagent listed more than once was tested more than once; the source does not tell the runs apart. Reagent sequences are not shown. The record does not give: the 100% reference.

no.	target gene	reagent	technical replicate	viability, normalised (%)
1	DNAJC5	1	1	117
2	DNAJC5	1	2	107
3	DNAJC5	1	3	98.2
4	ACVR2B	1	1	71.2 (active)
5	ACVR2B	1	2	69.1 (active)
6	ACVR2B	1	3	76.8 (active)
7	PDK3	1	1	97.7
8	PDK3	1	2	122
9	PDK3	1	3	111
10	ARID4A	1	1	74.9 (active)
11	ARID4A	1	2	84.1
12	ARID4A	1	3	72 (active)
13	ALPK3	1	1	78.1 (active)
14	ALPK3	1	2	77 (active)
15	ALPK3	1	3	52.9 (active)
16	MAP2K6	1	1	100
17	MAP2K6	1	2	102
18	MAP2K6	1	3	87.2
19	CDK3	1	1	114
20	CDK3	1	2	108
21	CDK3	1	3	105
22	RBM10	1	1	41.4 (active)
23	RBM10	1	2	34.6 (active)
24	RBM10	1	3	55.6 (active)
25	HELQ	1	1	75.8 (active)
26	HELQ	1	2	66.3 (active)
27	HELQ	1	3	80.8
28	HELQ	2	1	80.7
29	HELQ	2	2	72.5 (active)
30	HELQ	2	3	66.4 (active)
31	VCAM1	1	1	53.8 (active)
32	VCAM1	1	2	83.7
33	VCAM1	1	3	73.3 (active)
34	PIAS1	1	1	32 (active)
35	PIAS1	1	2	32.7 (active)
36	PIAS1	1	3	31.8 (active)
37	SFN	1	1	62.5 (active)
38	SFN	1	2	60.5 (active)
39	SFN	1	3	59.7 (active)
40	BCL2	1	1	73.3 (active)
41	BCL2	1	2	86.8
42	BCL2	1	3	79 (active)
43	GK	1	1	102
44	GK	1	2	83.7
45	GK	1	3	80.8
46	CHTOP	1	1	29.2 (active)
47	CHTOP	1	2	47.5 (active)
48	CHTOP	1	3	64.6 (active)
49	BABAM2	1	1	91.2
50	BABAM2	1	1	79.7 (active)
51	BABAM2	1	2	107
52	BABAM2	1	2	77.1 (active)
53	BABAM2	1	3	87.9
54	BABAM2	1	3	107
55	BMPR1B	1	1	83.9
56	BMPR1B	1	2	75.7 (active)
57	BMPR1B	1	3	86.8

Not a retest: an excerpt of the list.
no.	target gene	reagent	technical replicate	viability, normalised (%)
2	DNAJC5	1	2	107
3	DNAJC5	1	3	98.2
4	ACVR2B	1	1	71.2 (active)
5	ACVR2B	1	2	69.1 (active)
